Literature values, collected in US20030073069A1, “Drug rescue by redesign of ADMET/PK properties” (priority 2001, published 2003).

Test system: P450

COC(=O)C1=C(C)NC(C)=C(C(=O)OC)C1c1ccccc1[N+](=O)[O-] [nifedipine]
No. of currently known drug interactions that involve the compound, Inhibition: 1
